This is an account of results in publication PMC11144933.

Amino acid sequences for entries named in this document (tags omitted). Residues count along the entry.
UniProt P20029, residues 20-655: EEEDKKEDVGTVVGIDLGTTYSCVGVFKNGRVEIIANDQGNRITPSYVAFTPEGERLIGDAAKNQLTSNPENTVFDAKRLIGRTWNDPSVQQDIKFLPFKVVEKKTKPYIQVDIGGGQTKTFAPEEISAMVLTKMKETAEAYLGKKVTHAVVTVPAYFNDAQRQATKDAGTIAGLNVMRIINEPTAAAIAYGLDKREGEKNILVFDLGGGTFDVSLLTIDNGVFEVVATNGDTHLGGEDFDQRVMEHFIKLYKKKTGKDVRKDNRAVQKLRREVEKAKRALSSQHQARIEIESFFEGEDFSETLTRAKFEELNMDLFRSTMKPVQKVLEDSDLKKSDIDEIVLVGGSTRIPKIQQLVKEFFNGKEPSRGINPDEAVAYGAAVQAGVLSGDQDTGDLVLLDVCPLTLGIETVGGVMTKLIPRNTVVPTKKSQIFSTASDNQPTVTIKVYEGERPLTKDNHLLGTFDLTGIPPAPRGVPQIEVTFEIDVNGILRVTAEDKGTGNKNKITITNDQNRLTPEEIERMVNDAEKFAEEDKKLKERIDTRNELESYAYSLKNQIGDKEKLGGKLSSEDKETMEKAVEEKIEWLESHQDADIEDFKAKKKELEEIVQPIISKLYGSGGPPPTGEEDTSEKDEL

This assay addresses T1, epithelial sodium channel alpha subunit (α-ENaC) (mouse (endogenous in MIN6)) (UniProt Q61180).
T1 sequence: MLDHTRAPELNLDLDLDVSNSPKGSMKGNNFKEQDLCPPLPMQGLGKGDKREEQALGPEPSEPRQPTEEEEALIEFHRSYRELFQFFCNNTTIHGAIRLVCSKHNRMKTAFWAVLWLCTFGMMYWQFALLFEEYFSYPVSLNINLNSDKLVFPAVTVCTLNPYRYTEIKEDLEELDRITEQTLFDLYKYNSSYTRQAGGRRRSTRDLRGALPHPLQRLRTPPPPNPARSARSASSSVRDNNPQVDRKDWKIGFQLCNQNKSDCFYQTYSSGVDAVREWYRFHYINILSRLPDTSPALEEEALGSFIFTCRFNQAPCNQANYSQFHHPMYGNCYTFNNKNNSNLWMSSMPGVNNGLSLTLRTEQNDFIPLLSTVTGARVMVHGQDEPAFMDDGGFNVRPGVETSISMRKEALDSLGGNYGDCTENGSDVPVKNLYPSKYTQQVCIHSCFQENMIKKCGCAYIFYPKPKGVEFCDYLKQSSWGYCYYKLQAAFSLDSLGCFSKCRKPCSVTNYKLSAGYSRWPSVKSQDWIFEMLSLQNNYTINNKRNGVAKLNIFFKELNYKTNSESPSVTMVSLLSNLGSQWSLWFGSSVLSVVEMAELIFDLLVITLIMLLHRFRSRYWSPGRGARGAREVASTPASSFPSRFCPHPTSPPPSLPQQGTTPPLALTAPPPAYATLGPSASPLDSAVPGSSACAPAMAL
Put plainly: co-IP; MIN6 lysate in NP40 with 10 mmol/L Tris-HCl and 10 mmol/L NaCl; 1 mg of protein, target antibody at 4 ℃ overnight, protein A beads 2 to 6 h; Western blotting.

These are yes or no findings as the source states them, for the method shown. In cells and extracts the contact can be indirect. Some entries that bind do so weakly or less than the wild type.

Consider “78 kDa glucose-regulated protein (from UniProt P20029 20-655)”, for which the binding result was “binds weakly”.
